{"source": "PubChem BioAssay AID1671195 (Yale University, 2021)", "screen": "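Genes whose knockdown alters LDL uptake in liver cancer cells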 (primary screen)", "system": "human Huh7 hepatoma cells", "knock-down reagent": "siRNA pool against human genes, 18 nM", "time to read-out": "about 2 to 2.5 days of knockdown, then 8 h LDL uptake", "conditions": "DiI-labelled LDL at 30 µg/ml for 8 h, in lipoprotein-deficient serum medium", "measured": "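Fluorescent LDL signal imaged in cells, scaled to the plate median, robust z-score for each replicate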", "reading the numbers": "robust z-score: higher = more LDL uptake after knockdown", "call rule": "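a gene counts as active if at least two replicate z-scores exceed ±2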", "note": "In all, the deposit lists about 22,000 reagents; this is a random part of them. About 1,510 of them (6.9%) were called active. 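Active includes knockdowns raising or lowering LDL uptake; positive z-scores mean more uptake, negative mean less.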 Entries without a mark were called inactive. Reagents against one gene are numbered here."}
The opening 2 records, to show the layout:
{"gene": "FAP", "pool no.": 1, "robust z-score, replicate 1": -0.947, "robust z-score, replicate 2": -0.0605, "robust z-score, replicate 3": -0.606}
{"gene": "ZFR2", "pool no.": 1, "robust z-score, replicate 1": -0.163, "robust z-score, replicate 2": 1.56, "robust z-score, replicate 3": 0.366}

The list itself, from the start:
{"gene": "FAP", "pool no.": 1, "robust z-score, replicate 1": -0.947, "robust z-score, replicate 2": -0.0605, "robust z-score, replicate 3": -0.606}
{"gene": "ZFR2", "pool no.": 1, "robust z-score, replicate 1": -0.163, "robust z-score, replicate 2": 1.56, "robust z-score, replicate 3": 0.366}
{"gene": "ZFR2", "pool no.": 2, "robust z-score, replicate 1": -0.231, "robust z-score, replicate 2": 0.395, "robust z-score, replicate 3": -0.0375}
{"gene": "LINC02028", "pool no.": 1, "robust z-score, replicate 1": 0.475, "robust z-score, replicate 2": 1.05, "robust z-score, replicate 3": 1}
{"gene": "KBTBD3", "pool no.": 1, "robust z-score, replicate 1": 1.7, "robust z-score, replicate 2": 1.45, "robust z-score, replicate 3": 1.19}
{"gene": "SCP2D1", "pool no.": 1, "robust z-score, replicate 1": 1.73, "robust z-score, replicate 2": 1.59, "robust z-score, replicate 3": 1.12}
{"gene": "RHEX", "pool no.": 1, "robust z-score, replicate 1": -0.457, "robust z-score, replicate 2": -0.591, "robust z-score, replicate 3": -0.763}
{"gene": "ANKRD49", "pool no.": 1, "robust z-score, replicate 1": -0.629, "robust z-score, replicate 2": -0.142, "robust z-score, replicate 3": -1.12}
{"gene": "SETX", "pool no.": 1, "robust z-score, replicate 1": -0.791, "robust z-score, replicate 2": -0.238, "robust z-score, replicate 3": -0.522}
{"gene": "KRTAP22-1", "pool no.": 1, "robust z-score, replicate 1": -0.0244, "robust z-score, replicate 2": -0.1, "robust z-score, replicate 3": -0.117}
{"gene": "LYSMD4", "pool no.": 1, "robust z-score, replicate 1": -0.207, "robust z-score, replicate 2": -0.748, "robust z-score, replicate 3": -0.693}
{"gene": "KRT85", "pool no.": 1, "robust z-score, replicate 1": 1.72, "robust z-score, replicate 2": 0.565, "robust z-score, replicate 3": 1.03}
